# Screen size: about 330,000 compounds; about 7,700 (2.3%) were called active. Inconclusive results, whose numbers are uncertain, are shown with a selection of clear calls. The call rests on the fitted dose curve; in most records, active means well fitted inhibition curve with a large enough effect; inconclusive means small, poorly fitted or top-dose-only effect, or effect the other way; inactive means flat fitted curve, though single readings scatter. Where the call is inconclusive, the potency comes from a doubtful curve fit.
# Experiment: qHTS screen for small molecules that inhibit ELG1-dependent DNA repair in human embryonic kidney (HEK293T) cells expressing luciferase-tagged ELG1; further: nearly all actives have a fitted effect of over 55% in size
# Conditions: HEK293T ELG1-luciferase reporter, luminescence, 16 h, DNA damage induced by 5-fluorouridine; activity change, negative = inhibition: at 46.1 µM (top of the series)
# Method in brief: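 DMSO vehicle served as the neutral condition. Each well held 2,000 cells given 5-fluorouridine plus compound; after 16 hr at 37 °C/5% CO2, ONE-Glo was added and luciferase measured 30 min later.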
# On the % scale 0 is the no-effect control and ±100 the full control effect; potency means the concentration at half of the fitted maximal effect.
Compound,Potency,"activity change, negative = inhibition"
Cc1nc(SCC(=O)Nc2cc(C(N)=O)cc(C(N)=O)c2)c2c(C)c(C)sc2n1,"inconclusive: 2.31 µM [inhibitor, full curve]",
O=C(CSC1CN(C(c2ccccc2)c2ccccc2)C1)N/N=C/c1ccccc1,,inactive: -24.6%
CCOC(=O)C1CCN(Cc2c(O)c3ccccc3oc2=O)CC1,"inconclusive: 20.6 µM [inhibitor, partial curve, poor fit]",
O=C(CCCSc1nnc(Nc2ccccc2F)s1)N1CCOCC1,"inconclusive: 2.59 µM [activator, full curve, poor fit]",
CC(=O)Cc1nsc(NC(=O)c2csc3c2CCCC3)n1,"inconclusive: 10.3 µM [activator, partial curve]",
COc1ccc(Cl)cc1C(=O)NCCN(C)C,,inactive: 8.35%
COc1ccc(CC(=O)Nc2nc(-c3cccc([N+](=O)[O-])c3)cs2)cc1,"inconclusive: 29.1 µM [activator, partial curve, poor fit]",
COc1ccc(-n2c(SCC(=O)N(C)c3ccccc3)nc3c([nH]c4ccccc43)c2=O)cc1OC,"inconclusive: 4.61 µM [inhibitor, partial curve, poor fit]",
O=C(Nc1ccccc1F)N(CCCN1CCOCC1)Cc1cc2cc3c(cc2[nH]c1=O)OCCO3,,inactive: 12.8%
OCCN1CCN(c2cc(C(F)(F)F)nc3ccccc23)CC1,,inactive: 2.21%
Cc1nn(-c2ccccc2)c(C)c1/C=N/NC(=O)c1cc(C(C)(C)C)[nH]n1,"inconclusive: 20.6 µM [inhibitor, single point]",
O=[N+]([O-])c1ccccc1/C=C/C=N/Nc1ccc(S(=O)(=O)Nc2ccc(Cl)cc2)cc1[N+](=O)[O-],"inconclusive: 18.3 µM [inhibitor, partial curve, poor fit]",
Cc1ccc(C)c(N2CCN(C(=S)Nc3ccc4nc(N5CCOCC5)cc(C)c4c3)CC2)c1,,inactive: -27.3%
COc1cccc(OCCCCSc2ncccn2)c1,"inconclusive: 23.1 µM [activator, single point]",
CC(=O)Oc1cc(OC(C)=O)c2c(=O)c(-c3ccc4c(c3)OCCCO4)c(C)oc2c1,"inconclusive: 7.3 µM [activator, partial curve]",
Cc1cccc(C(=O)Nc2ccnc(-c3ccncc3)n2)c1,,inactive: -28.2%
Cc1c(-c2nc(-c3ccc(C(C)(C)C)cc3)no2)n(C)oc1=O,"inconclusive: 0.366 µM [activator, full curve]",
Cc1ccc2c(c1)cc1c(=O)n(CC(=O)NCCN3CCCC3)nc(C)n12,"inconclusive: 16.4 µM [activator, single point]",
O=C(CNC(=O)c1ccccn1)N=Nc1c(O)[nH]c2ccccc12,"inconclusive: 13 µM [activator, partial curve, poor fit]",
COc1ccc(C(=O)Nc2cccc(-c3nnc(-c4ccco4)o3)c2)cc1,active: 20.6 µM,
Nc1nnc(CCS(=O)(=O)c2cc(Cl)ccc2Cl)s1,"inconclusive: 2.91 µM [inhibitor, single point]",
O=C(COC(=O)C1CC1)Nc1ccc(Cl)cn1,"inconclusive: 29.1 µM [activator, single point]",
COc1ccc(S(=O)(=O)N2CCOCC2)cc1NC(=O)CCNC(=O)c1ccc(Cl)cc1,"inconclusive: 32.6 µM [inhibitor, partial curve, poor fit]",

Compound,Potency,"activity change, negative = inhibition"
O=C(O)c1ccc(Nc2nc(-c3cccnc3)nc3ccccc23)cc1,,inactive: 7.47%
CC(C)[C@H](NC(=O)c1ccccc1)C(=O)N1CCc2ccccc21,"inconclusive: 7.31 µM [activator, partial curve]",
Cc1ccc(C2Nc3ccc4ccccc4c3C3=C2C(=O)CC(C)(C)C3)o1 (configuration not stated),"inconclusive: 20.6 µM [inhibitor, single point]",
O=S(=O)(c1ccccc1)N1N=C(c2ccccc2)CC1c1ccccc1 (configuration not stated),,inactive: -14.3%
Cc1cc(SCC(=O)c2ccccc2)nc(C)n1,"inconclusive: 9.2 µM [activator, partial curve]",
CSCCC(NC(=O)c1ccccc1C)C(=O)O (configuration not stated),,inactive: 3.27%
Cc1c(C(=O)N(CCO)Cc2ccccc2)oc2c(F)cccc12,"inconclusive: 18.3 µM [activator, partial curve]",
CCOC(=O)c1c(C2COc3ccccc3O2)csc1NC(=O)c1ccco1 (configuration not stated),"inconclusive: 35.5 µM [inhibitor, partial curve, poor fit]",
COc1ccccc1C(=O)N/C(N)=N/c1nc2ccccc2o1,"inconclusive: 18.4 µM [activator, single point]",
COC(=O)c1cc(NC(=O)c2cc(-c3ccc(OC)cc3)oc2C(F)(F)F)ccc1N1CCOCC1,active: 23.1 µM,
Cc1csc(NC(=O)c2cn3ccccc3n2)n1,"inconclusive: 0.461 µM [activator, full curve]",
C=CCOC(=O)C1=C(C)NC(C)=C(C(=O)OCC=C)C1c1ccc(C)o1,"inconclusive: 11.6 µM [inhibitor, partial curve]",
Cc1ccccc1NC(=O)Cc1nc(COC(=O)Cc2c(F)cccc2Cl)cs1,"inconclusive: 20.6 µM [inhibitor, partial curve]",
CC(C)Cn1c(N)c(C(=O)COC(=O)c2cc(C(F)(F)F)nc3ccccc23)c(=O)n(C)c1=O,"inconclusive: 29.1 µM [inhibitor, single point]",
CCN(C(=O)COC(=O)c1cccc(S(=O)(=O)N(CC)CC)c1)C1CCS(=O)(=O)C1 (configuration not stated),"inconclusive: 6.51 µM [inhibitor, single point]",
Cc1cc(=O)[nH]c(SCc2ccc(Cl)cc2Cl)n1,"inconclusive: 0.73 µM [activator, partial curve, poor fit]",
CC1CCN(C(=O)CCC(=O)Nc2nnc(C(F)(F)F)s2)CC1,"inconclusive: 29.1 µM [activator, partial curve, poor fit]",
CCOC(=O)c1cccc(NC(=O)C2CCCN(S(=O)(=O)c3c(C)n[nH]c3C)C2)c1 (configuration not stated),"inconclusive: 23.1 µM [inhibitor, single point]",
Cc1cc(C)c2c(N)c(C(=O)Nc3nccs3)sc2n1,"inconclusive: 0.366 µM [activator, full curve]",
CCCS(=O)(=O)N1CCC(C(=O)NCCCN2CCC(Cc3ccccc3)CC2)CC1,,inactive: 8.64%
Cc1ccc2cc(/C=N/NC(=O)c3ccccc3O)c(Cl)nc2c1,"inconclusive: 29.1 µM [inhibitor, single point]",
COc1cc(C(=O)Nc2nc(-c3ccc(Cl)cc3)c(C)s2)ccc1OCC(=O)Nc1ccc(F)cc1,"inconclusive: 5.17 µM [inhibitor, partial curve, poor fit]",
O=C(/C=C/c1ccco1)Nc1ccc2c(c1)OCO2,"inconclusive: 5.17 µM [activator, partial curve]",

# Reformatted with bars between the fields: part of the list above
Compound | Potency | activity change, negative = inhibition
Cc1ccc2cc(/C=N/NC(=O)c3ccccc3O)c(Cl)nc2c1 | inconclusive: 29.1 µM [inhibitor, single point] | 
COc1cc(C(=O)Nc2nc(-c3ccc(Cl)cc3)c(C)s2)ccc1OCC(=O)Nc1ccc(F)cc1 | inconclusive: 5.17 µM [inhibitor, partial curve, poor fit] | 

# (list continues)

Compound,Potency,"activity change, negative = inhibition"
COCC(C)NC(=O)CCS(=O)(=O)c1nc(-c2ccc(OC)cc2)cc(C(F)(F)F)n1 (configuration not stated),"inconclusive: 29.1 µM [inhibitor, single point]",
O=C(N[C@@H](Cc1c[nH]c2ccccc12)C(=O)O)c1ccc(Cl)cc1,,inactive: 13.8%
O=C(COC(=O)CC1CCS(=O)(=O)C1)Nc1ccc(F)cc1 (configuration not stated),"inconclusive: 3.66 µM [activator, single point]",
CSc1nc(-c2ccccc2)cn1-c1ccc(NC(C)=O)cc1,"inconclusive: 18.3 µM [activator, partial curve]",
COc1ccc(-c2nnc(SCC(=O)NCCC(C)C)nc2-c2ccc(OC)c(OC)c2)cc1OC,"inconclusive: 18.3 µM [inhibitor, single point]",
O=C(Nc1c(Cl)cccc1Cl)c1cc(-c2ccco2)on1,"inconclusive: 11.6 µM [activator, partial curve]",
COc1ccccc1N1CCN(C(=O)CCCN2C(=O)c3cccc4cccc(c34)C2=O)CC1,active: 4.61 µM,
CCO[C@H]1OC(C(=O)N2CCN(Cc3ccccc3)CC2)=C[C@@H](c2ccccc2)[C@@H]1CCCO,,inactive: -5.94%
COc1ccc(CNC(=S)Nc2cc(C)cc(C)c2)cc1,,inactive: -13.2%
O=C1/C(=C\c2cccnc2)CCc2ccccc21,"inconclusive: 14.6 µM [activator, partial curve]",
CC(=O)C1=C(O)CCC1=NCCc1ccccc1,,inactive: 0.655%
CCOC(=O)/C(C#N)=C/c1cc(C)n(-c2ccc(C)cc2)c1C,"inconclusive: 2.59 µM [activator, full curve]",
CC(NC(=O)C1CCCN(S(=O)(=O)c2cccs2)C1)c1ccccc1 (configuration not stated),"inconclusive: 29.1 µM [inhibitor, single point]",
S=C(Nc1ccccc1Cl)N1CCC(c2ccccc2)C1 (configuration not stated),"inconclusive: 16.4 µM [activator, partial curve]",
Fc1ccc(Nc2ccnc(C(F)(F)F)c2)cc1,"inconclusive: 16.4 µM [inhibitor, partial curve]",
COc1cccc(C(=O)C2CCCN(Cc3cn(C)nc3-c3ccccc3)C2)c1 (configuration not stated),,inactive: -10.2%
COc1ccc2sc(-c3ccc(SC)cc3)c(-c3ccc(O)cc3)c2c1,,inactive: -4.02%
O=C(Cn1c(=O)oc2cccnc21)Nc1ccccc1Oc1ccc(Cl)cc1Cl,,inactive: 19.8%
CC1CCCC(NC(=O)Cn2c(Cl)nc3c2c(=O)n(C)c(=O)n3C)C1C (configuration not stated),"inconclusive: 14.6 µM [inhibitor, partial curve, poor fit]",
COC(=O)c1ccc(CN2C(=O)NC3(CCCCC3)C2=O)cc1,"inconclusive: 18.3 µM [activator, partial curve]",
N#C/C(=C\c1ccc(OCc2ccc(Cl)cc2)cc1)C(=O)Nc1cccc(C(=O)O)c1,"inconclusive: 18.3 µM [activator, partial curve]",

# In the list so far, these have a nitro group on carbon.
Compound,Potency,"activity change, negative = inhibition"
COc1ccc(CC(=O)Nc2nc(-c3cccc([N+](=O)[O-])c3)cs2)cc1,"inconclusive: 29.1 µM [activator, partial curve, poor fit]",
O=[N+]([O-])c1ccccc1/C=C/C=N/Nc1ccc(S(=O)(=O)Nc2ccc(Cl)cc2)cc1[N+](=O)[O-],"inconclusive: 18.3 µM [inhibitor, partial curve, poor fit]",

# — PubChem BioAssay AID504467 (National Center for Advancing Translational Sciences (NCATS), 2011)
